Test results: PubChem BioAssay AID588497 (NMMLSC, 2011)
Hit rate of the full screen: of about 360,000 compounds, about 780 (0.22%) were called active. The inconclusive results got no clear call from the source; some entries with a clear call stand among them for comparison. Cut-off read from the data, not from the text of the source: active = inhibition above about 35% (passing the limit was not always enough); inconclusive = no clear call, values can overlap the other calls.

What follows are compounds tested on Botulinum neurotoxin type F light chain protease (Clostridium botulinum) (assay: BoNT/F light chain protease inhibitors, primary screen, biochemical, flow cytometry, MLPCN library (AID 588497; note: plate controls were buffer without enzyme for full effect and enzyme alone for no effect)). Details: Multiplex microsphere protease cleavage assay, at 10 µM, hits give high values.

Row | Compound | inhibition
1 | Cc1ccc(NC(=O)c2cc(S(=O)(=O)N(C)C)ccc2N2CCCC2)cc1S(=O)(=O)N(C)C | inconclusive: -9.1%
2 | O=[N+]([O-])c1ccc(N2CCCCC2)nc1N1CCCCC1 | inconclusive: -31.8%
3 | O=C(Cn1nnc(-c2cccc(C(F)(F)F)c2)n1)N1CCCCCC1 | inconclusive: 7.6%
4 | Cc1ccc(-c2cc(-c3ccc(F)cc3)nc(N)c2C#N)o1 | inactive: 0.9%
5 | COc1ccc(NC(=O)COC(=O)CCCc2c[nH]c3ccccc23)cc1OC | inactive: -14.3%
6 | CCOC(=O)CN(C(=O)CSc1nnc(-c2ccc(OC)c(OC)c2)o1)c1ccccc1 | inactive: -2.4%
7 | Nc1nc(Nc2ccccc2F)nc(N2CCOCC2)c1[N+](=O)[O-] | inconclusive: -78.9%
8 | O=C(c1ccccc1Cl)N1CCN(Cc2ccc3c(c2)OCO3)CC1 | inconclusive: -30%
9 | NC(=O)C1CCN(C(=O)CC(c2ccccc2)c2ccccc2)CC1 | inconclusive: 18.6%
10 | CSc1ccc(CN2CCCCCC2)cc1 | inconclusive: 17.7%
11 | COc1ccc(OC)c(/C=C/c2[nH]c(=O)[nH]c(=O)c2[N+](=O)[O-])c1 | inconclusive: -27.8%
12 | CCC(=NCc1cccnc1)c1c(O)n(-c2ccccc2)c(=O)[nH]c1=O | inconclusive: 26.4%
13 | COc1cccc(-c2nn(CCC#N)cc2C(=O)Nc2ccccc2Cl)c1 | inconclusive: -4.9%
14 | COc1ccccc1NC(=O)CSc1nnnn1-c1ccc(C(=O)O)cc1 | inactive: -4.1%
15 | COc1ccccc1NC(=O)Nc1nnc(CC(=O)Nc2ccccc2C)s1 | inactive: -3.2%
16 | COc1ccc2c(c1)c(C(=O)N/N=C/c1cccc(Br)c1)c(C)n2C | inconclusive: -129%
17 | O=C1CCC(c2ccccc2)(c2ccccc2)CC1 | inconclusive: 4.8%
18 | CCc1ccccc1NC(=O)CCS(=O)(=O)c1ccc(OC)cc1 | inconclusive: 21.7%
19 | O=C(/C=C/c1ccc(Cl)c(Cl)c1)N1CCOCC1 | inconclusive: -39.8%
20 | CSc1ccc(/C=C(\C(=O)O)c2ccc(S(=O)(=O)N3CCCC3)s2)cc1 | inactive: 12%
21 | CC1=NN(c2ccccc2)C(=O)C1N=Nc1ccc(S(N)(=O)=O)cc1 (configuration not stated) | inconclusive: -2%
22 | CCOC(=O)c1ccccc1NC(=O)C1CC(=O)N(C(C)(C)C)C1 (configuration not stated) | inconclusive: -17.8%
23 | Cc1ncsc1CCC(=O)N1CCCC(Nc2ccc(C(C)C)cc2)C1 (configuration not stated) | inconclusive: 23.3%

Structures above with a nitro group on carbon (three):
Row | Compound | inhibition
2 | O=[N+]([O-])c1ccc(N2CCCCC2)nc1N1CCCCC1 | inconclusive: -31.8%
7 | Nc1nc(Nc2ccccc2F)nc(N2CCOCC2)c1[N+](=O)[O-] | inconclusive: -78.9%
11 | COc1ccc(OC)c(/C=C/c2[nH]c(=O)[nH]c(=O)c2[N+](=O)[O-])c1 | inconclusive: -27.8%

Going on with the list.

Row | Compound | inhibition
24 | CC[C@@H](C)[C@H](NC(=O)Cc1c(C)c2c(cc(C)c3c(C)c(C)oc32)oc1=O)C(=O)O | active: 37.5%
25 | O=C(OCCN=C1NS(=O)(=O)c2ccccc21)c1ccccc1 | inactive: 11.3%
26 | FC(F)(F)c1ccc(Cl)c(N/N=C/c2ccc(N3CCOCC3)s2)c1 | inactive: -23.8%
27 | N#CCNc1ccc([N+](=O)[O-])cc1C#N | inconclusive: 2.7%
28 | O=c1[nH]c(O)c(/C=C2\C=Nc3ccc(OCc4ccccc4)cc32)c(=O)[nH]1 | inconclusive: 5.7%
29 | Cc1ccc(CN(C)C2CCN(C)CC2)cc1 | inconclusive: -25%
30 | CCOC(=O)C1=C(C)NC(C)=C(C(=O)OCC)C1C(=O)OCC(=O)NC(C)C | inconclusive: -8.9%
31 | O=C(CNC1CCCCC1)Nc1cccc(C(F)(F)F)c1 | inconclusive: -20.9%
32 | COc1cccc(/C=C2\N=C(C3CCCCC3)OC2=O)c1OC | inactive: -1.8%
33 | CCOc1ccc(NC(=O)COc2ccc(-n3cnnn3)cc2)cc1 | inconclusive: -5.3%
34 | CCN1CCCC1CNC(=O)c1cc([N+](=O)[O-])c(N(C)C)cc1OC (configuration not stated) | inconclusive: -16.9%
35 | O=C(NCCCN1CCOCC1)C(=O)N/N=C/c1cccc2ccccc12 | inconclusive: -60.5%
36 | O=C(NNC(=S)NC(=O)c1ccccc1)c1ccc([N+](=O)[O-])cc1 | inconclusive: 18.6%
37 | CCS(=O)(=O)N1CCC(C(=O)Oc2ccccc2OC)CC1 | inconclusive: -9%
38 | Cc1ccc(N2CCN(Cc3ccccc3)CC2=O)c(C)c1 | inconclusive: 17.9%
39 | C=CCN(CC=C)C(=O)c1cccc(OC2CCN(S(=O)(=O)N(C)C)CC2)c1 | inconclusive: 16.8%
40 | CC[C@@H](C)[C@H](NC(=O)Cc1c(C)c2cc3c(C)c(C)oc3c(C)c2oc1=O)C(=O)O | inconclusive: 2.2%
41 | CC[n+]1c(/C=C2\Sc3ccccc3N2C)ccc2cccc(C)c21 | inactive: -60.2%
42 | CN(C)CCCNc1ccc(-c2n[nH]c(=O)c3ccccc23)cc1[N+](=O)[O-] | inconclusive: -62.3%
43 | FC(F)(F)c1ccccc1Cc1c(C2CCCCC2)nc2ccc(Cl)cn12 | inactive: -13.6%
44 | CC(=O)c1cccc(NC(=O)c2sc(Cl)nc2C)c1 | inconclusive: 1.7%
45 | CCOP(=O)(c1ccc(N(C)C)cc1)C(O)c1cccnc1 (configuration not stated) | inconclusive: 140%
46 | CCOC(=O)c1cnc(C(F)(F)F)nc1Oc1ccccc1 | inconclusive: -54.3%

Rewritten as tab-separated lines: part of the list above
Row	Compound	inhibition
34	CCN1CCCC1CNC(=O)c1cc([N+](=O)[O-])c(N(C)C)cc1OC (configuration not stated)	inconclusive: -16.9%
46	CCOC(=O)c1cnc(C(F)(F)F)nc1Oc1ccccc1	inconclusive: -54.3%

Going on with the list.

Row | Compound | inhibition
47 | COC(=O)Nc1nnc(-c2ccc(OC)cc2)s1 | inconclusive: -66.3%
48 | N#C/C(=C\c1ccc(N2CCOCC2)o1)c1nc2ccccc2[nH]1 | active: 102%
49 | Clc1ccc(-c2nnc(C3CC3)o2)cc1 | inconclusive: 26.1%
50 | O=C(O)CCCC(=O)Nc1ccc(Oc2cccc(C(F)(F)F)c2)nc1 | inconclusive: -44.3%
51 | CCCCCCC(C)OC(=O)Nc1cccc2ccccc12 (configuration not stated) | inconclusive: 25.6%
52 | Cc1cc(S(=O)(=O)n2[nH]c(=O)c(CCO)c2C)c(Cl)cc1Cl | inconclusive: 0.7%
53 | Cc1cccc(N(Cc2cc(=O)[nH]c3ccccc23)C(=O)CCl)c1 | inconclusive: 14%
54 | CCN1CCN(C2=CC3=CC(=C(C#N)C#N)CCC3CC2)CC1 (configuration not stated) | active: 48.4%
55 | O=Cc1cc(Cl)ccc1OCCN1CCC(Cc2ccccc2)CC1 | inconclusive: -13.4%
56 | Cc1ccc(CSc2nc3c(c(=O)[nH]2)C(c2ccncc2)C2=C(CCCC2=O)N3)cc1 (configuration not stated) | inconclusive: -17.4%
57 | CCOc1ccccc1NC(=O)COC(=O)c1cc[n+]([O-])cc1 | inactive: -5.3%
58 | CCOC(=O)c1c(-c2ccccc2)oc2ccc(OCC(O)CNCCN(C)C)cc12 (configuration not stated) | inconclusive: -62.7%
59 | NC(=S)N=Nc1c(O)n(CCCl)c2ccc(Cl)cc12 | inactive: -6%
60 | CC1C(=O)OC(c2ccc(Br)cc2)C(C)(C)C1=O (configuration not stated) | inconclusive: 35.9%
61 | CCn1nc(NC(=O)c2ccncc2)c2cc3cc(C)ccc3nc21 | inconclusive: 22.5%
62 | CC1CCCN(C(=O)COc2ccc(Nc3ccccc3)cc2)C1 (configuration not stated) | inactive: -3.6%
63 | COc1ccc(/C=C2\SC(=O)N(CCC(=O)Nc3ccc(S(=O)(=O)Nc4nccs4)cc3)C2=O)cc1 | inactive: -1.2%
64 | CCCCc1ccc(/C(C)=N/Nc2cc(N3CCOCC3)nc(C)n2)cc1 | inconclusive: 27.1%
65 | Cc1ccc(C(=O)OCC(=O)N2CCc3ccccc32)cc1 | inactive: -5.1%
66 | Cc1ccc(-c2cc(C(=O)Nc3cc(C)ccc3O)no2)cc1 | inconclusive: 17.2%
67 | Cc1cccc(OCC(=O)NCc2ccc(F)cc2)c1 | inconclusive: 10.6%
68 | N#C/C(=C(/O)CO/N=C/c1ccccc1Cl)c1nc2ccccc2[nH]1 | inconclusive: -6.7%
69 | Cc1cc(Nc2ccc([N+](=O)[O-])cc2)c2ccccc2n1 | inconclusive: -37%

Row | Compound | inhibition
70 | C=CCNC(=O)C(=O)Nc1cc2c3c(c1)CCC(=O)N3CCC2 | inactive: 1.6%
71 | COc1ccccc1OCCn1ccnc1 | inconclusive: 11.1%
72 | CC(=O)C1C(c2ccc(F)cc2)c2c(noc2C)CC1(C)O (configuration not stated) | active: 37%
73 | Oc1ccc(C(c2nnnn2C2CCCC2)N2CCc3ccccc3C2)cc1 (configuration not stated) | inconclusive: -3.2%
74 | O=C(NCc1cccnc1)/C(=C/c1ccccc1)NC(=O)c1ccccc1 | inactive: -0.3%
75 | CCc1ccc(NC(=O)COC(=O)CN2C(=O)COc3ccccc32)cc1 | inconclusive: -15.3%
76 | CC(C)(C)C(=O)C(Cc1ccccc1Cl)n1cncn1 (configuration not stated) | inconclusive: -21.5%
77 | COc1ccccc1/C=C/c1ccc2cccc(O)c2n1 | inconclusive: -39.4%
78 | COC(=O)c1c(N)n(-c2ccc(NC(C)=O)cc2)c2nc3ccccc3nc12 | inconclusive: -10%
79 | CCCS(=O)(=O)NC(=O)C1(C)CCN(C(=O)c2c(-c3ccccc3)noc2C)C1 (configuration not stated) | inactive: -1.2%
80 | CCCc1cnc(N2CCN(C(=S)NC)CC2)nc1 | inconclusive: -13.5%
81 | NNS(=O)(=O)c1ccc(Sc2ccccn2)c([N+](=O)[O-])c1 | inactive: -2.4%
82 | Cc1onc(-c2ccccc2Cl)c1C(=O)OCc1nnc(-c2ccccc2)o1 | inconclusive: 6.2%
83 | O=[N+]([O-])c1ccc(NCc2ccc(Cl)cc2)nc1 | inconclusive: -17.2%
84 | CCc1cccc(NC(=O)c2snc3c(=O)[nH]cnc23)c1 | inconclusive: 9.4%
85 | CCOC(=O)COc1ccc2c(c1)C(=O)CC1(CCCCC1)O2 | inactive: -1.2%
86 | O=[N+]([O-])c1ccc(/C=N/Nc2nc(N3CCCCC3)nc(N3CCCCC3)n2)o1 | inactive: 1.6%
87 | Cc1nc(C(=O)Nc2ccccc2Cl)cc2c1[nH]c1ccccc12 | inactive: 2%
88 | CCOc1cc(C2CC(=O)NC3=C2C(=O)C(C(=O)OC)C(C)C3)cc(Br)c1O (configuration not stated) | inconclusive: 4.5%
89 | CC1CN(CCOc2ccc(F)cc2)CC(C)O1 (configuration not stated) | active: 35.5%
90 | O=C(CNCCc1ccc(F)cc1)Nc1cc(F)ccc1F | inconclusive: -25.2%
91 | CCN(Cc1ccccc1)Cc1c(C)[nH]c2c(C)c(C)ccc2c1=O | inactive: -3.8%
92 | CC(C)(C)C(=O)Nc1cccc(S(=O)(=O)NC2=NCCC2)c1 | inconclusive: -12.1%
